Results deposited as PubChem BioAssay AID652243 (Drosophila RNAi Screening Center, 2013).

- Purpose: 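Fly regulators of androgen-dependent reporter output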 (primary screen)
- Cell system: Drosophila S2R+ cells
- Knock-down reagent: long dsRNA against Drosophila genes
- Time to read-out: 72 h (48 h, then 24 h hormone)
- Treatment: synthetic androgen R1881 at 10 nM for 24 h
- Read-out: 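Per-well raw luminescence of the androgen-driven firefly reporter and of the Renilla control, two replicates each, without normalisation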
- Direction: firefly reporter light: higher = more light from androgen-responsive reporter; Renilla control light: higher = more constitutive control signal (cell number, transfection)
- Hit rule: 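Hit when the log firefly-to-Renilla ratio dropped or increased by a fixed fold versus the mean of GFP or LacZ controls across duplicate plates; lowering cut given as 1.5 and as 3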
- Calls: active = hit: reporter lowered or raised; inactive = no hit
The screen tested about 24,000 reagents; below is a random part of those that have a named target and a result. Over the whole deposit, 246 (1%) got an active call. 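Plates not normalised; calls are printed but the firefly/Renilla ratio behind them is not deposited; fold cut for lowering reported inconsistently.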 Raw values vary from plate to plate and are shown uncorrected. The numbers tell different reagents against one gene apart. Names joined by + are all predicted targets of the reagent. Not stated in the record: the amount of reagent.

gene,dsRNA no.,"firefly reporter light, replicate 1","firefly reporter light, replicate 2","Renilla control light, replicate 1","Renilla control light, replicate 2",outcome
Mks1,1,5.72e5,4.02e5,3.43e6,3.07e6,inactive
nAChRalpha3,1,2.49e5,2.33e5,2.58e6,3.54e6,inactive
nAChRalpha3,2,6.98e5,5.28e5,5.85e5,6.54e5,inactive
mub,1,32686,29352,3.93e5,3.26e5,inactive
mub,2,5.62e5,4.30e5,1.05e6,9.86e5,inactive
CG42564,1,75977,79066,8.33e5,6.95e5,inactive
Osi21,1,2.55e5,1.35e5,2.09e6,1.38e6,inactive
link,1,94868,90876,2.06e6,2.06e6,inactive
link,2,1.30e6,1.04e6,2.18e6,1.80e6,inactive
link,3,5.91e5,6.30e5,9.76e5,1.76e6,inactive
NP15.6,1,1.45e5,2.65e5,2.26e6,2.00e6,inactive
NP15.6,2,5.29e5,3.70e5,5.72e5,5.67e5,inactive

The list goes on; the last 2 above are carried over.
gene,dsRNA no.,"firefly reporter light, replicate 1","firefly reporter light, replicate 2","Renilla control light, replicate 1","Renilla control light, replicate 2",outcome
NP15.6,1,1.45e5,2.65e5,2.26e6,2.00e6,inactive
NP15.6,2,5.29e5,3.70e5,5.72e5,5.67e5,inactive
PXo,1,1.09e6,1.05e6,2.28e6,2.25e6,inactive
CycB,1,3.03e5,1.57e5,8.87e5,6.68e5,active
CycB,2,,,,,inactive
CG6709 + Hez,1,3.05e5,2.78e5,3.75e6,2.75e6,inactive
CG6709 + Hez,2,3.95e5,4.09e5,4.50e6,3.40e6,inactive
CG31178,1,2.83e5,2.94e5,3.45e6,3.33e6,inactive
Acsx1R + Acsx1L,1,9.46e5,8.96e5,8.88e5,9.59e5,inactive
RpS14a,1,1.76e5,1.87e5,1.60e6,1.47e6,inactive
CG6329,1,1.44e6,1.55e6,3.02e6,3.41e6,inactive
BEAF-32 + CG42254 (retired record),1,1.10e5,1.23e5,2.47e5,1.64e5,inactive
Gr23a,1,2.37e5,1.94e5,6.05e5,4.01e5,inactive
CG12880,1,78622,88540,5.90e5,5.81e5,inactive
